According to the supplement of paper PMC5355238:
Where a name gives a salt, the structure may show the parent alone. ± gives the standard deviation of the averaged measurements. The list shows a part of the results. Most values come without repeats; read them as rough.

The compounds below were run on Reh (assay: S-phase gammaH2AX median, Z-score vs plate median (drug alone); higher = more S-phase DNA damage). Conditions: MK1775 concentration 0 nM; 10 µM; 4 h.

SMILES | S-phase gammaH2AX median (Z-score)
C=C1/C(=C\C=C2/CCC[C@]3(C)[C@@H]([C@H](C)/C=C/[C@H](C)C(C)C)CC[C@@H]23)C[C@@H](O)C[C@@H]1O [Doxercalciferol (Hectorol)] | 0.116
CC(C)(C)NCC(O)c1cc(O)cc(O)c1 (configuration not stated) [Terbutaline hemisulfate] | 0.487
CC[N+](CC)(CC)CCOc1cccc(OCC[N+](CC)(CC)CC)c1OCC[N+](CC)(CC)CC [Gallamine triethiodide] | 0.0189
CCOC(=O)[N-]c1c[n+](N2CCOCC2)no1 [Molsidomine] | -0.281
CC/C(=C(\c1ccccc1)c1ccc(OCCN(C)C)cc1)c1ccccc1 [Tamoxifen Citrate (Nolvadex)] | -0.0437
CC/C(=C(\c1ccccc1)c1ccc(OCCN(C)C)cc1)c1ccccc1 [Tamoxifen citrate] | -0.1
CCN(CCCOc1ccc2c(Nc3cc(CC(=O)Nc4cccc(F)c4)[nH]n3)ncnc2c1)CCOP(=O)(O)O [Barasertib (AZD1152-HQPA)] | 0.0545
O=c1[nH]nc(Sc2ncc([N+](=O)[O-])s2)n1-c1ccc2c(c1)OCCO2 | 0.498
CCN1CCC[C@H]1CNC(=O)c1c(O)c(Cl)cc(Cl)c1OC [S(+)-Raclopride L-tartrate] | -0.314
O=C(O)c1cccnc1C(=O)O [Quinolinic acid] | -0.0993
CN1CCN(c2nc(C3=C(c4c[nH]c5ccccc45)C(=O)NC3=O)c3ccccc3n2)CC1 [Sotrastaurin (AEB071)] | -0.113
COc1cc2ncnc(Nc3ccc(F)c(Cl)c3)c2cc1OCCCN1CCOCC1 [Gefitinib (Iressa)] | -0.0476
CN1CCC[C@@H]1CCO[C@](C)(c1ccccc1)c1ccc(Cl)cc1 [Clemastine fumarate] | 0.0563
Nc1nc2[nH]cc(CCc3ccc(C(=O)N[C@@H](CCC(=O)O)C(=O)O)cc3)c2c(=O)[nH]1 [Pemetrexed] | -0.0205
COCCc1ccc(OCC(O)CNC(C)C)cc1 (stereo not drawn) [(?)-Metoprolol (+)-tartrate] | -0.118
CC(C)Cc1ccc(C(C)C(=O)O)cc1 (configuration not stated) [(?)-Ibuprofen] | 0.0472
O=C(O)C1(C(=O)O)CCC1.[NH2-].[NH2-].[Pt+2] [Carboplatin] | 0.0821 ± 0.14
COC(=O)C(N)Cc1ccc(Cl)cc1 (racemic) [DL-p-Chlorophenylalanine methyl ester hydrochloride] | -0.0233
O=c1c(O)c(-c2ccc(O)c(O)c2)oc2cc(O)cc(O)c12 [Quercetin dihydrate] | 0.18
O=c1c(O)c(-c2ccc(O)c(O)c2)oc2cc(O)cc(O)c12 [Quercetin (Sophoretin)] | 0.116
N[C@H](C(=O)O)[C@H]1C[C@@H]1C(=O)O [(2S,1'S,2'S)-2-(carboxycyclopropyl)glycine] | -0.0233
CCc1cc(-c2n[nH]c(C)c2-c2ccc3c(c2)OCCO3)c(O)cc1O | -0.0128
COc1ncc(-c2ccc3nccc(-c4ccnnc4)c3c2)cc1NS(=O)(=O)c1ccc(F)cc1F | -0.263
N=C(N)NCCCCN [Agmatine sulfate] | -0.0175

Retrieved one by one from the list above (3):
SMILES | S-phase gammaH2AX median (Z-score)
CCOC(=O)[N-]c1c[n+](N2CCOCC2)no1 [Molsidomine] | -0.281
CC[N+](CC)(CC)CCOc1cccc(OCC[N+](CC)(CC)CC)c1OCC[N+](CC)(CC)CC [Gallamine triethiodide] | 0.0189
CCN(CCCOc1ccc2c(Nc3cc(CC(=O)Nc4cccc(F)c4)[nH]n3)ncnc2c1)CCOP(=O)(O)O [Barasertib (AZD1152-HQPA)] | 0.0545

More records follow:

SMILES | S-phase gammaH2AX median (Z-score)
CCCCNc1ccc(C(=O)OCCN(C)C)cc1 [Tetracaine hydrochloride] | 0.407
COc1ccc(NC(=O)c2ccc(-c3ccc(-c4noc(C)n4)cc3C)cc2)cc1N1CCN(C)CC1 | -0.182
CCCCCOC(=O)Nc1nc(=O)n([C@@H]2O[C@H](C)[C@@H](O)[C@H]2O)cc1F [Capecitabine (Xeloda)] | 0.208
COc1ccccc1N1CCN(CCCCNC(=O)c2ccc3ccccc3c2)CC1 | 0.0447
O=C1[C@H](CC[C@H](O)c2ccc(F)cc2)[C@@H](c2ccc(O)cc2)N1c1ccc(F)cc1 [Ezetimibe (Zetia)] | -0.0561
Cc1cnc(C(=O)NCCc2ccc(S(=O)(=O)NC(=O)NC3CCCCC3)cc2)cn1 [Glipizide] | 0.107
CC(C)NC[C@H](O)COc1cccc2[nH]ccc12 [S(-)-Pindolol] | 0.0654 ± 0.086
COc1ccc(C2CC(c3ccccc3)=NN2c2ccc(S(N)(=O)=O)cc2)cc1 (configuration not stated) | -0.0522
CCCC(=O)[O-].[Na+] [Sodium butyrate] | -0.0653
Cc1cc(Nc2cc(N3CCN(C)CC3)nc(/C=C/c3ccccc3)n2)n[nH]1 | -0.152
COC(=O)C1=C(C)NC(C)=C(C(=O)OCCN(C)Cc2ccccc2)C1c1cccc([N+](=O)[O-])c1 (configuration not stated) [Nicardipine hydrochloride] | -0.111
Cc1ccccc1CNc1ncnc2c1ncn2[C@@H]1O[C@H](CO)[C@@H](O)[C@H]1O [Metrifudil] | -0.66
CC1(C)CNc2cc(NC(=O)c3cccnc3NCc3ccncc3)ccc21 [Motesanib Diphosphate] | -0.0398
CC(C)NCC(O)c1ccc(O)c(O)c1 (single isomer, unassigned; (-)) [(-)-Isoproterenol hydrochloride] | 0.0661
Cc1ccccc1C(OCCN(C)C)c1ccccc1 (configuration not stated) [Orphenadrine hydrochloride] | -0.0781
CCCCCCCCCCCCCCCCCC(=O)NCC(COP(=O)([O-])OCC[N+](C)(C)C)OCC (racemic) [rac-2-Ethoxy-3-octadecanamido-1-propylphosphocholine] | -0.0819
C=CCn1c(=O)c2cnc(Nc3ccc(N4CCN(C)CC4)cc3)nc2n1-c1cccc(C(C)(C)O)n1 | 4.25
CC(=O)OCC1=C(C(=O)O)N2C(=O)[C@@H](NC(=O)Cc3cccs3)[C@H]2SC1 [Cephalothin sodium] | -0.0388
O=C1CCC(N2C(=O)c3ccccc3C2=O)C(=O)N1 (configuration not stated) [(?)-Thalidomide] | -0.214
CNCCCN1c2ccccc2CCc2ccccc21 [Desipramine hydrochloride] | -0.12
CC(N)C(=O)OC(C)(C)Cc1ccc(Cl)cc1 (configuration not stated) [Alaproclate hydrochloride] | -0.00971
CN(CCOc1ccc(C[C@H](Nc2ccccc2C(=O)c2ccccc2)C(=O)O)cc1)c1ccccn1 | 0.161
CCC(C)n1ncn(-c2ccc(N3CCN(c4ccc(OCC5COC(Cn6cncn6)(c6ccc(Cl)cc6Cl)O5)cc4)CC3)cc2)c1=O (configuration not stated) [Itraconazole (Sporanox)] | -0.0367
